Experimental data: PubChem BioAssay AID504804 (Drosophila RNAi Screening Center, 2011)
Screen: 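Knock-downs shielding fly cells from apoptosis caused by DNA damage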 (primary screen). Cell system: Drosophila Kc cells. Reagent: long dsRNA against Drosophila genes, 0.5 µg dsRNA per well. Duration: 96 h (48 h knock-down, then 48 h drug). Conditions: doxorubicin 5 µg/ml for 48 h, added 48 h after dsRNA. Detection: 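Luminescent ATP counts per replicate, not normalised, reflecting viable cells after 48 h dsRNA knock-down followed by 48 h of 5 µg/ml doxorubicin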. Reading the numbers: raw ATP luminescence: higher = more viable cells, protection from doxorubicin. Active means: 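z-score of 2 or more over plate mean in both duplicates, retained only when retests and separate dsRNAs confirm the protection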.
The screen tested about 19,000 reagents; shown is a random part of those that have a named target and a result. Over the whole deposit, 47 (0.25%) are marked active. 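Signals are raw, not normalised; exact z-scores behind calls not deposited; actives needed confirmation, so some wells reaching 2 SD are inactive.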 Reagent sequences are not shown.

CG6481 [DRSC19995] → raw ATP luminescence, replicate 1: 2.15e5; raw ATP luminescence, replicate 2: 2.38e5; Call: inactive
CG12105 [DRSC08255] → raw ATP luminescence, replicate 1: 55370; raw ATP luminescence, replicate 2: 49160; Call: inactive
MTF-1 (Metal response element-binding Transcription Factor-1) [DRSC08983] → raw ATP luminescence, replicate 1: 1.42e5; raw ATP luminescence, replicate 2: 1.68e5; Call: inactive
MTF-1 (Metal response element-binding Transcription Factor-1) [DRSC11217] → raw ATP luminescence, replicate 1: 86910; raw ATP luminescence, replicate 2: 78517; Call: inactive
CG34299 [DRSC13974] → raw ATP luminescence, replicate 1: 2.12e5; raw ATP luminescence, replicate 2: 1.82e5; Call: inactive
CG34384 [DRSC12644] → raw ATP luminescence, replicate 1: 58297; raw ATP luminescence, replicate 2: 81803; Call: inactive
CG34384 [DRSC14855] → raw ATP luminescence, replicate 1: 66937; raw ATP luminescence, replicate 2: 72533; Call: inactive
CG34384 [DRSC15444] → raw ATP luminescence, replicate 1: 54083; raw ATP luminescence, replicate 2: 62930; Call: inactive
CG34384 [DRSC16575] → raw ATP luminescence, replicate 1: 46093; raw ATP luminescence, replicate 2: 67977; Call: inactive
aay (astray) [DRSC11320] → raw ATP luminescence, replicate 1: 38630; raw ATP luminescence, replicate 2: 35820; Call: inactive
CG32369 [DRSC10042] → raw ATP luminescence, replicate 1: 73093; raw ATP luminescence, replicate 2: 78753; Call: inactive
CG32369 [DRSC10834] → raw ATP luminescence, replicate 1: 36817; raw ATP luminescence, replicate 2: 36383; Call: inactive

Reprinted from above, 2 entries:
CG6481 [DRSC19995] → raw ATP luminescence, replicate 1: 2.15e5; raw ATP luminescence, replicate 2: 2.38e5; Call: inactive
CG12105 [DRSC08255] → raw ATP luminescence, replicate 1: 55370; raw ATP luminescence, replicate 2: 49160; Call: inactive
